Earlier results as cited in patent US20150133555A1, “COMPOSITIONS FOR AMELIORATING A REDUCED HIGHER BRAIN FUNCTION RESULTING FROM ORGANIC BRAIN LESIONS” (SUNTORY HOLDINGS LIMITED, priority 2005, published 2015).
For at least one compound, name, drawing or mass did not settle the structure.

How the values were obtained:
[1] = test system: normal healthy individuals; settings: oral
[2] = test system: cases of cerebrovascular dementia and Alzheimer's dementia; settings: 700-1400 mg DHA per day, oral, six months
[3] = 2400 mg DHA capsules, 26 normal healthy individuals, before vs 2 hours after administration

## CC/C=C\C/C=C\C/C=C\C/C=C\C/C=C\C/C=C\CCC(=O)O [docosahexaenoic acid (DHA), docosahexaenoic acid]
[1]; 900 mg DHA capsules, every day for six months, 97 normal elderly individuals
  changes in P300, prolonged administration: no changes were noted
[1]; [3]
  P300 amplitude: significantly enhanced
  P300 latent time: significantly curtailed
[2]
  cases with effect of a slight amelioration or better, Alzheimer's dementia: all five cases
  cases with effect of a slight amelioration or better, cerebrovascular dementia: 10 of 13
